Laboratory results reported in US8975259B2, “Compositions and methods for inhibiting G protein signaling” (University of Rochester, priority 2007, dated 2015).
Values joined by “and” are separate entries in the source; they are usually repeats but may differ in a detail not shown here. Equal values may be shown once.

Assays:
[1] = system: opioid-induced antinociception in mice; assay: 55° C. warm-water tail-flick antinociception; type: in vivo, mouse
[2] = system: acute morphine antinociceptive tolerance in mice; assay: Acute morphine antinociceptive tolerance (repeated i.c.v. dosing, tail-flick); type: in vivo, mouse; settings: morphine alone

## CN1CC[C@]23c4c5ccc(O)c4O[C@H]2[C@@H](O)C=C[C@H]3[C@H]1C5.O=S(=O)(O)O [morphine, Morphine sulfate]
[1]; Mus musculus, sc, read-out: ED50 of morphine alone, systemic
  ED50: 5 mg/kg
[1]; mouse, in vivo, sulfate
  ED50 of opioid agonist alone: 0.74 nmol and 0.743 (0.341-1.62) nmol
[2]; 4 hr
  ED50 of i.c.v. morphine: 4.9 nmol
[2]; 6 hr
  ED50 of i.c.v. morphine: 9.6 nmol
[2]; time 0
  ED50 of i.c.v. morphine: 0.59 nmol
